These are yes or no findings as the source states them, for the method shown. For some assays here: Binding seen in cells or lysates may run through a third protein. Some binding calls cover weakened binding; strength is not graded here.

Protein sequences, listed by entry. Tags and fused reporters are not part of them. Lines headed by an entry give the natural chain unless they say otherwise; changes in a name come on top. Residues count along the entry.
UniProt P05412: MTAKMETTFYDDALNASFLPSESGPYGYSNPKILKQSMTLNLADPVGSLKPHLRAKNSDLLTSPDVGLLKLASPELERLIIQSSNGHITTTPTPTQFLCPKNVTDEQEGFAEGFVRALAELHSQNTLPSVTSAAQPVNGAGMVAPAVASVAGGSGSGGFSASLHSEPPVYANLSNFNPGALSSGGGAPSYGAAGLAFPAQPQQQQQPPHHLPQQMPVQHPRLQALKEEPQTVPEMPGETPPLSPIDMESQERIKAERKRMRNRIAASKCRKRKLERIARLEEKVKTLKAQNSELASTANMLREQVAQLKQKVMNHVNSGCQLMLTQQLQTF
JUN1 (fragment of c-JUN that includes the DNA binding domain and leucine zipper domain): residues 252-331 of P05412

B1: Peptide SP58 (peptide)
peptide: RSDYKDDDDKAYQSIMAVAAQQPVAFLVGRQRRRGQVGIDSGDQHLRTPLFHELCRRRPCSLAWYQLMHRYRY
B2: Peptide SP30 (peptide)
peptide: RSDYKDDDDKVYAYFGNTGDVVEVGVDLVGIAGVAHAQAADPQGQQQQGQQAGQEEQADTD
B3: Peptide SP4 (peptide)
peptide: RSDYKDDDDKAYQSMFCESRFLDNASAPAMRNAKRRSEERVLCNLTVHRKHILHKITSDDLFRTAFCRNPFIFYGHKMMRMID
B4: Peptide SP66 (peptide)
peptide: RSDYKDDDDKAYQSIIGAGKSTLIKALTGVYHADRGTIWLEGQAISPKNTAHAQQCRRRPCSLTWYQLMHRYRY

The first test addresses JUN1 (fragment of c-JUN that includes the DNA binding domain and leucine zipper domain) (UniProt P05412). The test is described as follows: forward yeast two-hybrid, peptide in bait vector pDD, JUN1 prey, growth in the absence of uracil.
Consider RSDYKDDDDKAYQESTKALVEGGADLILIETVLVVVVLVV [Peptide SP12], for which the binding result is “binds”.
As to RSDYKDDDDKAYQSSTGSAAILFNFRRMGIVIIIQI [Peptide SP80], the binding entry is recorded as “binds”.
For the molecule RSDYKDDDDKGLQGRRRQGYQSIKP [Peptide SP36], the binding result was “binds”.
With B1, the binding result is “binds”.
As for RSDYKDDDDKAYQSIIH [Peptide SP18], the binding entry was “binds”.
Take RSDYKDDDDKAYQSIKWPM [Peptide SP33]: the binding result is listed as “binds”.
As for RSDYKDDDDKKDSIRRRGENISSQEVEAVLMSHPEVVNAAVYPVRGD [Peptide SP22], the binding entry is listed as “binds”.
For the molecule RSDYKDPFFWRLNKIFYFIDSRVAAAILN [Peptide SP71], the binding result is given as “binds”.
Take B2: the binding entry was “binds”.
Consider B3, for which the binding result is “binds”.
On to RSDYKDDDDKAYQSIRSGGIESSSKRER [Peptide SP35], for which the binding result is reported as “binds”.
Still for that read-out and setting: for RSDYKDDDDKAYQSINSSPVLPENSQELSLHLKQHVTKS [Peptide SP34] the value was “binds”; for RSDYKDDDDKAYQSIIANEEEREKNFASSKKDGSYTDLL [Peptide SP8], “binds”.
Same read-out and setting: for RSDYKDDDDKAY [Peptide SP5] the value was “binds”; for RSDYKDDDDKAYQSKRL [Peptide SP6], “binds”.
Still for that read-out and setting: the entry for RSDYKDDDDKAYQSIKWPM [Peptide SP79] is “binds”; for B4 it is “binds”; for RSDYKDDDDKANQLPKILAGRLIFIKC [Peptide SP60] it is “binds”.
For RSDYKDYWWGPFIPPFFWRLNKI [Peptide SP29], the binding result is “binds”.
With RSDYKDDDDKLYQSLLTATKELLFVAPVAKAFTSCD [Peptide SP24], the binding entry was “binds”.
As for RSDYKDDDDKIYSSILWGTKWCVLLVITP [Peptide SP20], the binding result was “binds”.
The same measure, in the same setting: the entry for RSDYKDDDDNTPHSSDGHNNP [Peptide SP32] is “binds”.

The target of a further test is c-Jun (Homo sapiens, UniProt P05412). Briefly: co-immunoprecipitation from co-transfected HEK293 cells, anti-FLAG capture of peptide, anti-c-Jun western blot. A general note: In western blotting, separated proteins are transferred to a membrane and probed.
Take B2: the binding result was “binds”.
The same measure, in the same setting: for RSDYKDDDDKAYQSIRSGGIESSSKRER [Peptide SP35] the value was “binds”; for RSDYKDDDDKIYSSILWGTKWCVLLVITP [Peptide SP20], “binds”.

The target in another test is JUN1 (fragment of c-JUN that includes the DNA binding domain and leucine zipper domain) (UniProt P05412). The test is described as follows: forward yeast two-hybrid, growth of yeast colonies.
For the molecule RSDYKDDDDKKDSIRRRGENISSQEVEAVLMSHPEVVNAAVYPVRGD [Peptide SP22], the binding entry was “binds”.

The values above are taken from patent US20100029552A1, “Peptide inhibitors of c-jun dimerization and uses thereof” (Phylogica Limited, priority 2004, published 2010).
